Measurements taken from publication PMC4804180.
No constants are given. Whether binding was seen depends on the method and setting. Binding seen in cells or lysates may run through a third protein. Some binding calls cover weakened binding; strength is not graded here.

By UniProt entry, the sequences of proteins in these tests, tags left out.
UniProt Q02780: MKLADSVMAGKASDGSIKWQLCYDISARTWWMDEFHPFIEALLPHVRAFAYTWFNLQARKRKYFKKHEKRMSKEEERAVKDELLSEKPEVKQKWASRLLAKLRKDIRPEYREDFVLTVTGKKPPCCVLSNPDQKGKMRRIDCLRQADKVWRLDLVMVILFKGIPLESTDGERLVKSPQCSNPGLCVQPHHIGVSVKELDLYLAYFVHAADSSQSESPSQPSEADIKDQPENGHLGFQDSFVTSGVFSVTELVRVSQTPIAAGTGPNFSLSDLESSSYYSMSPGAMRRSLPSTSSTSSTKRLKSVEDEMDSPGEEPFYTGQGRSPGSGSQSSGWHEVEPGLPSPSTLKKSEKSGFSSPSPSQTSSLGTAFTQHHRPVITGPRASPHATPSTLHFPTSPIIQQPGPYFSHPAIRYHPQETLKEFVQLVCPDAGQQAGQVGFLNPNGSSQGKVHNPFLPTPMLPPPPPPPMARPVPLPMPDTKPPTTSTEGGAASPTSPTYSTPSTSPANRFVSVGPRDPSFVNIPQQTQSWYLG

Biological target: T1, Zinc finger- and BTB domain-containing protein 20 (Zbtb20) (mouse) (UniProt Q8K0L9)
T1 sequence: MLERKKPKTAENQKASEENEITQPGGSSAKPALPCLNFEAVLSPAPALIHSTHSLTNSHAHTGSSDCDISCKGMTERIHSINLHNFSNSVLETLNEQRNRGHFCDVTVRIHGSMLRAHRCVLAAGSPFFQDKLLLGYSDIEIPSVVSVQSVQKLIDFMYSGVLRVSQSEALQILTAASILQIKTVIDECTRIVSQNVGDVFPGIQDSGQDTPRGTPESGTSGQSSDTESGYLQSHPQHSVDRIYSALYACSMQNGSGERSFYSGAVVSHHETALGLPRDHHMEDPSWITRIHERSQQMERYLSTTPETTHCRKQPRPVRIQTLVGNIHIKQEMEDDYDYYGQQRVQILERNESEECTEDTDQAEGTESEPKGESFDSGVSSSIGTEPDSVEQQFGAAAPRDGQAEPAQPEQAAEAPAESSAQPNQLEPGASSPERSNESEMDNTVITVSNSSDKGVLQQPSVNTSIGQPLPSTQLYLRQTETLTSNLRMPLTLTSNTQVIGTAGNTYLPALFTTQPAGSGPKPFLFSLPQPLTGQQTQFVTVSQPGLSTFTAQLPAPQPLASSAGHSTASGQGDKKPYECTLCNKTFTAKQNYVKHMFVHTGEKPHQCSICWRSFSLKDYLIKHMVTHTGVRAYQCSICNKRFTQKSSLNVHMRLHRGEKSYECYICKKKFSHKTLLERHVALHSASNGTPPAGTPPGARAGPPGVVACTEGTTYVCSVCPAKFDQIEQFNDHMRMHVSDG
Assay: co-IP; lysates of transfected cells (50 mM HEPES-NaOH pH 7.5, 50 mM NaCl, 0.5% Triton X-100) incubated 3 h at 4 °C with anti-FLAG M2 affinity gel; washed four times with lysis buffer; blotted for Sox9, NFIA and FLAG

In the case of “nuclear factor I/A (NFIA) (from UniProt Q02780 1-532)”, the binding is reported as “binds”.
